Reference: the supplement of paper PMC10849652
This is one part of the list.

By UniProt entry, the sequences of proteins in these tests, tags left out. Where a name states a change or a piece, a line headed by the entry shows the natural chain unless it says otherwise.
UniProt P25208: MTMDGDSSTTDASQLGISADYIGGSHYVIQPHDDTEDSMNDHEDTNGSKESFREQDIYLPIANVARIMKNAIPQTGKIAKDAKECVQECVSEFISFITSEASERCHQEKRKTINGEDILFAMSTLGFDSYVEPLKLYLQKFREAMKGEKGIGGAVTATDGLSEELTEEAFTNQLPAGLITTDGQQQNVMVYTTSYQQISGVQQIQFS
UniProt O43847: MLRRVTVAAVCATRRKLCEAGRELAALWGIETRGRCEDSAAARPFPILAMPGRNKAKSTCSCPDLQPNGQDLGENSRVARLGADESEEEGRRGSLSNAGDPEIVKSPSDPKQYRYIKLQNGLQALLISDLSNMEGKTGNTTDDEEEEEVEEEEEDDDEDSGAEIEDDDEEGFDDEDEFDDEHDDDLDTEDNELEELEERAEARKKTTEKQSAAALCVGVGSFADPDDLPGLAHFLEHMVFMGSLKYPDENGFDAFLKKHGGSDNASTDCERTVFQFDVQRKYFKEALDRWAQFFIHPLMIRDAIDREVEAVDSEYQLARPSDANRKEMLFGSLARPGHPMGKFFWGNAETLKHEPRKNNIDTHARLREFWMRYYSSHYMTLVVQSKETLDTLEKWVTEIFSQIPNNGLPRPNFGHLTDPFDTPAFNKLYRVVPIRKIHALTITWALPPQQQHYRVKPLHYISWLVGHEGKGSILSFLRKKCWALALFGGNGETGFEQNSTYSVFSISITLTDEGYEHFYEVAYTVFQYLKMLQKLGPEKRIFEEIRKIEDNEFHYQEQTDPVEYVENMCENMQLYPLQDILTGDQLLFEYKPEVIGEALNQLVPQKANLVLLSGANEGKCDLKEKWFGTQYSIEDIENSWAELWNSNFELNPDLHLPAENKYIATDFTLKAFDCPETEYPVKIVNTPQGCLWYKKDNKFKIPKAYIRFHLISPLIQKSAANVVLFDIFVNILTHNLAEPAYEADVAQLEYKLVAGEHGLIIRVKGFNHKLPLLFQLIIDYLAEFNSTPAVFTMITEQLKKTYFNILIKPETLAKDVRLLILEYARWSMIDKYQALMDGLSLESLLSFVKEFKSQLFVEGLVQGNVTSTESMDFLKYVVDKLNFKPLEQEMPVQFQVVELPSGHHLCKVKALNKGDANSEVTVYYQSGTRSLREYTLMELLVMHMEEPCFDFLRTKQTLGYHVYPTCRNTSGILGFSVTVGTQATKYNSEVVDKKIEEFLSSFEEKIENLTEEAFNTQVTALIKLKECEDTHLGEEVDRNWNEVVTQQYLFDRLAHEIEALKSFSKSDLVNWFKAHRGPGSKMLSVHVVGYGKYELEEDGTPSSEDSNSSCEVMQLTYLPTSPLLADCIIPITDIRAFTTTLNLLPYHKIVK
UniProt Q9Y239: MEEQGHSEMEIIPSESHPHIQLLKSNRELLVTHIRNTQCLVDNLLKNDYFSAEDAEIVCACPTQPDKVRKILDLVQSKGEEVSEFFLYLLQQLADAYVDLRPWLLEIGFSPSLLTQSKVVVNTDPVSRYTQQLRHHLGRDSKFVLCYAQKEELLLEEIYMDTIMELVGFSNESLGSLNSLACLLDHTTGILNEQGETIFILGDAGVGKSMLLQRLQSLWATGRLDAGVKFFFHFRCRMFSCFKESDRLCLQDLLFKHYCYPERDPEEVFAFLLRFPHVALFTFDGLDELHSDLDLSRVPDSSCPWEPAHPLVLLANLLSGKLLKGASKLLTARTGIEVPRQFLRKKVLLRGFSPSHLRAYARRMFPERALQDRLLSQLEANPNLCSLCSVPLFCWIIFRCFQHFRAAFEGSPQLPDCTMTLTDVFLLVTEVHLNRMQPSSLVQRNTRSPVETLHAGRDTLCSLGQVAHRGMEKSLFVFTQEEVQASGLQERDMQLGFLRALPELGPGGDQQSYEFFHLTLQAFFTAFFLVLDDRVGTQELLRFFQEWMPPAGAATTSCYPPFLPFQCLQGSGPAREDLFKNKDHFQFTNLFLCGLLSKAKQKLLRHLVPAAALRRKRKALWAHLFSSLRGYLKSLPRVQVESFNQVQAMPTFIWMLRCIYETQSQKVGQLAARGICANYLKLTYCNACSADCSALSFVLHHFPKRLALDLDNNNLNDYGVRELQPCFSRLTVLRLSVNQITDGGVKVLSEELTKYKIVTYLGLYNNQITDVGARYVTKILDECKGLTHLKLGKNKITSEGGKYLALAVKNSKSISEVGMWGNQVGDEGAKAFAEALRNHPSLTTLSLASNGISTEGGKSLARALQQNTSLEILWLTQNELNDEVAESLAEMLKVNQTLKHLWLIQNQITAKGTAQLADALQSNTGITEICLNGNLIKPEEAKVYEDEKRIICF
UniProt Q8NBF2: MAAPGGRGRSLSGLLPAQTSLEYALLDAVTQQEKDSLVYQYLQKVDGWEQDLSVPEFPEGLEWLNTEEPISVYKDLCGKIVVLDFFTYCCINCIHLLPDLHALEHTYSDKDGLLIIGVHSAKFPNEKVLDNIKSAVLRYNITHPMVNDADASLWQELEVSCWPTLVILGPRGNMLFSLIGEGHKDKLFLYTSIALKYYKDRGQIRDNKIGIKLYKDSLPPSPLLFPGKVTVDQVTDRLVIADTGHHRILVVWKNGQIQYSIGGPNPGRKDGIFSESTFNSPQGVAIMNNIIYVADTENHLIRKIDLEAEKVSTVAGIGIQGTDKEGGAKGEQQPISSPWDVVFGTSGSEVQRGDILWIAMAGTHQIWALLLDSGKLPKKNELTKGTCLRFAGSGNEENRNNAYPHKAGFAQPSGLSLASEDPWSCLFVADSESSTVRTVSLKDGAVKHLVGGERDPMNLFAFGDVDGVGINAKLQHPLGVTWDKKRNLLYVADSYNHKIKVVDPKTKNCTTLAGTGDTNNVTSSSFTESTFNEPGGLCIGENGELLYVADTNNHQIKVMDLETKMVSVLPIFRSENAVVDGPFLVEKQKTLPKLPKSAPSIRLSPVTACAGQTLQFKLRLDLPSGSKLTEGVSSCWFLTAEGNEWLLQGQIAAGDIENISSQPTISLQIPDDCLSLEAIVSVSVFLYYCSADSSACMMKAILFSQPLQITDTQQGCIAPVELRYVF
UniProt Q13423: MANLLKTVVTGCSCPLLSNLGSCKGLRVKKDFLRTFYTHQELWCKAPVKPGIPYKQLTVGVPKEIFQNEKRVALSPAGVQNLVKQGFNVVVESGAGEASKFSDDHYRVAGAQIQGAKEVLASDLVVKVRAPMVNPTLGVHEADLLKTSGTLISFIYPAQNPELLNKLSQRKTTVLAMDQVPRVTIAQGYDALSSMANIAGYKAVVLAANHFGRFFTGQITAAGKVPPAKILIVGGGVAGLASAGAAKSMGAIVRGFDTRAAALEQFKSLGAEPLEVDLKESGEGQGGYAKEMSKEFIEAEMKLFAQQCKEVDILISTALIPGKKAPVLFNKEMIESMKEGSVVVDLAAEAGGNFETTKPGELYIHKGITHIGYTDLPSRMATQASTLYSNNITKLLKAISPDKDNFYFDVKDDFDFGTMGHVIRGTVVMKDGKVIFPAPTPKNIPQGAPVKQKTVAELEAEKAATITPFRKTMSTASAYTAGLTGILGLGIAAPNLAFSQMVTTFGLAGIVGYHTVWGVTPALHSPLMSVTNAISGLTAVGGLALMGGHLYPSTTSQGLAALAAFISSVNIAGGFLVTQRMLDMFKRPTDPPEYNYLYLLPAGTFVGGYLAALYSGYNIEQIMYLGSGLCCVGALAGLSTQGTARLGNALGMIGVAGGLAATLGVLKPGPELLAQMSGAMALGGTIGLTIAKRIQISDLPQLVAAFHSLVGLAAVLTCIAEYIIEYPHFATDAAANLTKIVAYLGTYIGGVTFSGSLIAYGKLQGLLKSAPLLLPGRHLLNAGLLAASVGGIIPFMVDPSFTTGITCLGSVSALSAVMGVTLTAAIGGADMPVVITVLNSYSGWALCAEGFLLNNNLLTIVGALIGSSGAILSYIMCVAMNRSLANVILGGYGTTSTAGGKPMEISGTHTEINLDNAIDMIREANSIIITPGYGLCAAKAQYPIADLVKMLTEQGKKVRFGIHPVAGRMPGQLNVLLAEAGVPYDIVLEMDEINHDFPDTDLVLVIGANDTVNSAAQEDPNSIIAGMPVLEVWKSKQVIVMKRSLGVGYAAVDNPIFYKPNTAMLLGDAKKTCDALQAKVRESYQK
UniProt O60936: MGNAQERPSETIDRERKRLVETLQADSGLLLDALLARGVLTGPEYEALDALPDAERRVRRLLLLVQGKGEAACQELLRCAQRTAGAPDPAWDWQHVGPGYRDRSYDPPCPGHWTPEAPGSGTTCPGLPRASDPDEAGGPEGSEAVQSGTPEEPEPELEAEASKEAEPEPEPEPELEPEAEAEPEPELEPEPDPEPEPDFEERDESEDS
UniProt Q9H6R4: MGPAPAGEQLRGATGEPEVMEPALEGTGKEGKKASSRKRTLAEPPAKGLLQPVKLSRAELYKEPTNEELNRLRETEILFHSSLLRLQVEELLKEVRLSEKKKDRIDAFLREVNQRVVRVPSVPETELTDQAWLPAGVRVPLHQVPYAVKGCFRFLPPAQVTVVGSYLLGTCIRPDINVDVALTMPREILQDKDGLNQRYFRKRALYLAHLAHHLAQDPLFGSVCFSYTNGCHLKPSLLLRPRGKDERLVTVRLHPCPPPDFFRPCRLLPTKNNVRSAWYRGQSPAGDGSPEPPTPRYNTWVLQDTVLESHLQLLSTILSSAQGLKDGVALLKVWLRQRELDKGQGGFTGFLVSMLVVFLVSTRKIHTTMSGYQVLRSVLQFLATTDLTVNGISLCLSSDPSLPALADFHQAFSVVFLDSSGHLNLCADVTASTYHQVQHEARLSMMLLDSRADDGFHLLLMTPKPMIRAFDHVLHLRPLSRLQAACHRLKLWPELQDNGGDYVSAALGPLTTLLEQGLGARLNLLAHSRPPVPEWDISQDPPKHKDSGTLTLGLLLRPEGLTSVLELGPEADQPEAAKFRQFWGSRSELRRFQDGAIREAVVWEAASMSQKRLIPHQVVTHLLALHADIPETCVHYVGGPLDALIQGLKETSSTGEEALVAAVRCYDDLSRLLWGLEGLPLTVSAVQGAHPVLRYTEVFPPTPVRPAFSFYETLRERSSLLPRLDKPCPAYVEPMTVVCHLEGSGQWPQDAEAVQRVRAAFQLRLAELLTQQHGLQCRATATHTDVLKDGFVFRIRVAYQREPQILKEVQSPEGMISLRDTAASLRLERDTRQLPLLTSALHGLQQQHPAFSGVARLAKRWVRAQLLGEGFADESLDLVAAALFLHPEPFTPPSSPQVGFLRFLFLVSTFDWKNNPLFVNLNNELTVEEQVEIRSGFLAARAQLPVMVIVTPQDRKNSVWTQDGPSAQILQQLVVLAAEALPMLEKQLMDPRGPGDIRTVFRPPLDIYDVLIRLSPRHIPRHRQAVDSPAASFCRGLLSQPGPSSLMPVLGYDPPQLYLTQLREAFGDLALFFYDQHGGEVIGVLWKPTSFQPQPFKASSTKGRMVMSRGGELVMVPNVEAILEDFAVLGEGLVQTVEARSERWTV
UniProt Q12968: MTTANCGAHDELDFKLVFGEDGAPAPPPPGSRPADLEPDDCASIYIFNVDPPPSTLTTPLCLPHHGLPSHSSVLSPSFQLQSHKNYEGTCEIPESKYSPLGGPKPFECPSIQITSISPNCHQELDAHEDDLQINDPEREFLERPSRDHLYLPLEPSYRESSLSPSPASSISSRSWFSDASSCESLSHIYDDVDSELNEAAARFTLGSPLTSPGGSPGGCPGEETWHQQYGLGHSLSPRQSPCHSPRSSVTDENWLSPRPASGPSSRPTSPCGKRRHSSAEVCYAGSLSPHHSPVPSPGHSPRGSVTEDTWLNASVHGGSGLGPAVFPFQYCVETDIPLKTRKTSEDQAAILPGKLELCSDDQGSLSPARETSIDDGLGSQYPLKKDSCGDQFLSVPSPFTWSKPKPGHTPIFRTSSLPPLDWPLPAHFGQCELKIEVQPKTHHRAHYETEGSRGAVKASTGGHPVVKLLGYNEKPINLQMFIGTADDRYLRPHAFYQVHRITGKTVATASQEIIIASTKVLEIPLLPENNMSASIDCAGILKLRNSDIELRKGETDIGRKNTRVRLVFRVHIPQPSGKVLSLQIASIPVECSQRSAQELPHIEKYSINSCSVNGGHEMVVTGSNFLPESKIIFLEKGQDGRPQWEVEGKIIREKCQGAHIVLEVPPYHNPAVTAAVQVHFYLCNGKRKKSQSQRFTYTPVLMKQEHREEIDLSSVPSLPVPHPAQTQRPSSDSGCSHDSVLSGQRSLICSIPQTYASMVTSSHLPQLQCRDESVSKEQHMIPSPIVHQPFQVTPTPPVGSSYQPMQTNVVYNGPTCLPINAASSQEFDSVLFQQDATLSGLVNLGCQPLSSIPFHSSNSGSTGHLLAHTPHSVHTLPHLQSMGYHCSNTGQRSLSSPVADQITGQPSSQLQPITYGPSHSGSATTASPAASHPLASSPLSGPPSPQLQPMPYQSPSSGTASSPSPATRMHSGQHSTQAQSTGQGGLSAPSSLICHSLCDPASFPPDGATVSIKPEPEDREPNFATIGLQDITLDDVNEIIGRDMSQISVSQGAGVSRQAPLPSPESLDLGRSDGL

Assays:
Test in all cases: log2 fold change, soluble protein after heating vs DMSO (PISA); higher = thermal stabilisation; K562 cells, 10 uM, 30 min; active = over 0.2 and 3.5 SD of the protein, either way, in both replicates (recomputed)
[1] = compound: COC1=CC=C(C=C1)CN2C=CC3=C2C=C(C=C3)C(=O)NO
In short: (§1)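 Soluble protein was quantified by TMTpro 16plex LC-MS/MS after channel sums were equalised. It was obtained as the supernatant after 21,000xg for 90 min from pooled aliquots of K562 cells (2×10^6 cells/mL, 10 μM compound, 30 min) heated for 3 min across 48°C-58°C and extracted in PBS with 0.5% NP-40 at 4°C. Thermal stability values are relative to control samples and come from duplicates. They are given as log2 fold changes.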

filanesib = compound: CON(C)C(=O)N1N=C(c2cc(F)ccc2F)S[C@@]1(CCCN)c1ccccc1 [filanesib]
In short: as §1

zotarolimus = compound: CO[C@H]1C[C@@H]2CC[C@@H](C)[C@@](O)(O2)C(=O)C(=O)N2CCCC[C@H]2C(=O)O[C@H]([C@H](C)C[C@@H]2CC[C@H](n3cnnn3)[C@H](OC)C2)CC(=O)[C@H](C)/C=C(\C)[C@@H](O)[C@@H](OC)C(=O)[C@H](C)C[C@H](C)/C=C/C=C/C=C/1C [zotarolimus]
In short: as §1

idasanutlin = compound: COc1cc(C(=O)O)ccc1NC(=O)[C@@H]1N[C@@H](CC(C)(C)C)[C@](C#N)(c2ccc(Cl)cc2F)[C@H]1c1cccc(Cl)c1F [idasanutlin]
In short: as §1

alisertib = compound: COc1cc(Nc2ncc3c(n2)-c2ccc(Cl)cc2C(c2c(F)cccc2OC)=NC3)ccc1C(=O)O [alisertib]
In short: as §1

[2] = compound: COc1cc2nc(-c3cc(F)ccc3O)nc(N[C@@H]3CNC[C@H]3C(C)(C)O)c2cc1OC
In short: as §1

[3] = compound: COc1cccc2cc(-c3nc([C@H]4CC[C@H](C(=O)O)CC4)n4ncnc(N)c34)[nH]c12
In short: as §1

lapatinib = compound: CS(=O)(=O)CCNCc1ccc(-c2ccc3ncnc(Nc4ccc(OCc5cccc(F)c5)c(Cl)c4)c3c2)o1 [lapatinib]
In short: as §1

pictilisib = compound: CS(=O)(=O)N1CCN(Cc2cc3nc(-c4cccc5[nH]ncc45)nc(N4CCOCC4)c3s2)CC1 [pictilisib]
In short: as §1

[4] = compound: CS(=O)(=O)c1ccc(-c2cnc(N)c(C(=O)Nc3ccccc3)n2)cc1
In short: as §1

crizotinib = compound: C[C@@H](Oc1cc(-c2cnn(C3CCNCC3)c2)cnc1N)c1c(Cl)ccc(F)c1Cl [crizotinib]
In short: as §1

[5] = compound: C[C@@H]1COCCN1C2=NC(=NC(=C2)C3(CC3)S(=O)(=O)C)C4=C5C=CNC5=CC=C4
In short: as §1

[6] = compound: C[C@H](C1=CC=C(C=C1)C(=O)NC2=C3C=CNC3=NC=C2)N
In short: as §1

duvelisib = compound: C[C@H](Nc1ncnc2nc[nH]c12)c1cc2cccc(Cl)c2c(=O)n1-c1ccccc1 [duvelisib]
In short: as §1

gandotinib = compound: Cc1cc(Nc2cc(CN3CCOCC3)c3nc(C)c(Cc4ccc(Cl)cc4F)n3n2)n[nH]1 [gandotinib]
In short: as §1

tozasertib = compound: Cc1cc(Nc2cc(N3CCN(C)CC3)nc(Sc3ccc(NC(=O)C4CC4)cc3)n2)n[nH]1 [tozasertib]
In short: as §1

[7] = compound: Cc1cc(SCc2sc(-c3ccc(C(F)(F)F)cc3)nc2C)ccc1OCC(=O)O
In short: as §1

doramapimod = compound: Cc1ccc(-n2nc(C(C)(C)C)cc2NC(=O)Nc2ccc(OCCN3CCOCC3)c3ccccc23)cc1 [doramapimod]
In short: as §1

ispinesib = compound: Cc1ccc(C(=O)N(CCCN)[C@@H](c2nc3cc(Cl)ccc3c(=O)n2Cc2ccccc2)C(C)C)cc1 [ispinesib]
In short: as §1

gefitinib = compound: COc1cc2ncnc(Nc3ccc(F)c(Cl)c3)c2cc1OCCCN1CCOCC1 [gefitinib]
In short: as §1

Target | log2 fold change [1] | log2 fold change (filanesib) | log2 fold change (zotarolimus) | log2 fold change (idasanutlin) | log2 fold change (alisertib) | log2 fold change [2] | log2 fold change [3] | log2 fold change (lapatinib) | log2 fold change (pictilisib) | log2 fold change [4] | log2 fold change (crizotinib) | log2 fold change [5] | log2 fold change [6] | log2 fold change (duvelisib) | log2 fold change (gandotinib) | log2 fold change (tozasertib) | log2 fold change [7] | log2 fold change (doramapimod) | log2 fold change (ispinesib) | log2 fold change (gefitinib)
NES (UniProt P48681) | inactive: 0.009 | inactive: 0.299 | inactive: -0.019 | inactive: 0.192 | inactive: -0.103 | inactive: -0.134 | inactive: -0.068 | inactive: -0.029 | inactive: 0.017 | inactive: 0.07 | inactive: 0.108 | inactive: -0.233 | inactive: 0.536 | inactive: -0.075 | inactive: 0.143 | inactive: 0.246 | inactive: 0.037 | inactive: 0.132 | inactive: -0.096 | 
NFYB (UniProt P25208) | inactive: 0.245 | inactive: -0.036 | inactive: -0.024 | inactive: 0.066 | inactive: -0.097 | inactive: -0.047 | inactive: 0.02 | inactive: 0.078 | inactive: -0.155 | inactive: -0.004 | inactive: 0.069 |  | inactive: -0.084 |  | inactive: 0.011 |  | inactive: -0.124 | inactive: -0.028 | inactive: 0.168 | inactive: 0.039
NME2P1 (UniProt O60361) | inactive: -0.256 | inactive: 0.058 | inactive: -0.111 | inactive: -0.367 | inactive: -0.089 | inactive: 0.122 | inactive: 0.084 | inactive: -0.075 | inactive: -0.041 | inactive: -0.093 | inactive: -0.066 | inactive: -0.114 | inactive: 0.079 |  | inactive: -0.346 |  |  | inactive: 0.27 | inactive: -0.119 | inactive: -0.01
NIPA1 (UniProt Q7RTP0) | inactive: -0.143 | inactive: -0.061 | inactive: -0.045 | inactive: -0.091 | inactive: 0.034 | inactive: 0.108 | inactive: 0.195 | inactive: 0.048 |  | inactive: 0.044 | inactive: 0.116 |  | inactive: -0.035 | inactive: -0.008 |  | inactive: 0.049 | inactive: 0.033 | inactive: 0.029 | inactive: 0.156 | inactive: 0.101
NOMO1 (UniProt Q15155) | inactive: -0.029 | inactive: 0.121 | inactive: -0.169 | inactive: 0 |  | inactive: -0.049 |  | inactive: 0.019 | inactive: -0.006 | inactive: -0.059 | inactive: -0.106 | inactive: -0.126 | inactive: 0.086 | inactive: 0.075 | inactive: -0.089 | inactive: 0 | inactive: -0.014 | inactive: 0.039 | inactive: -0.188 | inactive: 0.029
NFATC2IP (UniProt Q8NCF5) | inactive: -0.008 | inactive: -0.015 | inactive: -0.021 | inactive: -0.141 | inactive: 0.01 | inactive: 0.026 | inactive: 0.056 | inactive: 0.029 | inactive: 0.098 | inactive: 0.014 | inactive: 0.023 | inactive: 0.195 | inactive: -0.009 |  | inactive: 0.011 |  | inactive: 0.045 | inactive: -0.03 | inactive: 0.024 | inactive: 0
NMNAT1 (UniProt Q9HAN9) | inactive: -0.168 | inactive: 0.354 | inactive: -0.023 | inactive: 0.154 | inactive: -0.115 | inactive: 0.132 | inactive: -0.102 | inactive: 0.018 | inactive: -0.014 | inactive: -0.053 | inactive: -0.016 | inactive: -0.435 | inactive: 0.164 |  | inactive: 0.132 |  | inactive: -0.056 | inactive: 0.296 | inactive: -0.212 | inactive: -0.022
NRDC isoform 2 (UniProt O43847) | inactive: 0 | inactive: -0.038 | inactive: 0.005 | inactive: -0.026 | inactive: 0.013 | inactive: 0.076 | inactive: -0.001 | inactive: -0.019 | inactive: -0.029 | inactive: 0.034 | inactive: -0.065 | inactive: 0.054 | inactive: -0.034 |  | inactive: -0.029 |  | inactive: 0.089 | inactive: -0.036 | inactive: -0.022 | inactive: -0.022
NOD1 (UniProt Q9Y239) | inactive: 0.154 | inactive: 0.048 | inactive: -0.038 |  |  | inactive: 0.273 |  | inactive: -0.097 | inactive: 0.174 | inactive: -0.081 | inactive: 0.291 | inactive: -0.269 | inactive: 0.311 | inactive: 0.298 | inactive: 0.177 |  | inactive: -0.114 | inactive: -0.033 | inactive: -0.045 | 
NHLRC2 (UniProt Q8NBF2) | inactive: -0.084 | inactive: -0.062 | inactive: -0.001 | inactive: -0.061 | inactive: 0.1 | inactive: 0.061 | inactive: 0.123 | inactive: -0.057 | inactive: 0.062 | inactive: 0.1 | inactive: -0.127 | inactive: 0.165 | inactive: -0.011 |  | inactive: -0.158 |  | inactive: 0.044 | inactive: -0.005 | inactive: -0.198 | inactive: -0.011
NNT (UniProt Q13423) | inactive: -0.008 | inactive: -0.08 | inactive: 0.015 | inactive: -0.076 | inactive: -0.041 | inactive: 0.037 | inactive: 0.031 | inactive: -0.031 | inactive: -0.01 | inactive: 0.031 | inactive: 0.032 | inactive: 0.047 | inactive: -0.06 |  | active: -0.246 |  | inactive: -0.006 | inactive: -0.023 | inactive: 0.02 | inactive: 0.016
NOL3 isoform 3 (UniProt O60936) | inactive: -0.12 | inactive: 0.102 | inactive: -0.103 |  | inactive: 0.104 | inactive: 0.043 | inactive: -0.01 | inactive: 0 |  | inactive: -0.209 | inactive: -0.152 | inactive: 0.021 | inactive: -0.002 | inactive: 0.037 |  | inactive: -0.212 | inactive: -0.033 | inactive: 0.075 | inactive: 0.005 | inactive: -0.121
NOP58 (UniProt Q9Y2X3) | inactive: -0.124 | active: 0.528 | inactive: 0.044 | inactive: 0.229 | inactive: -0.035 | inactive: -0.096 | inactive: -0.028 | inactive: 0.054 | inactive: 0.049 | inactive: 0.006 | inactive: 0.047 | inactive: -0.061 | inactive: 0.242 |  | inactive: 0.121 |  | inactive: -0.001 | inactive: 0.098 | inactive: 0.103 | inactive: 0.039
NOL6 (UniProt Q9H6R4) | inactive: -0.243 | inactive: 0.483 | inactive: 0.126 | inactive: 0.298 | inactive: -0.312 | inactive: -0.136 | inactive: -0.352 | inactive: 0.148 | inactive: 0.024 | inactive: -0.173 | inactive: 0.081 | inactive: -0.023 | inactive: 0.463 | inactive: -0.056 | inactive: 0.06 | inactive: 0.149 | inactive: 0.098 | inactive: 0.119 | inactive: -0.087 | 
NFATC3 (UniProt Q12968) | inactive: 0.039 | inactive: 0.056 | inactive: -0.109 | inactive: -0.009 | inactive: 0.006 | inactive: -0.109 | inactive: -0.002 | inactive: 0.015 | inactive: 0.086 | inactive: -0.06 | inactive: -0.179 | inactive: 0.014 | inactive: -0.04 |  | inactive: -0.161 |  | inactive: 0.091 | inactive: 0.066 | inactive: 0.256 | inactive: 0.048
NR3C1 isoform 3 (UniProt P04150) | inactive: -0.123 |  | inactive: -0.032 | inactive: -0.008 | inactive: 0.078 | inactive: -0.016 | inactive: 0.085 |  |  |  | inactive: 0.138 | inactive: 0.008 | inactive: 0.084 | inactive: 0.025 |  | inactive: 0.09 | inactive: -0.012 | inactive: 0.075 |  | inactive: 0.04
NFE2L1 (UniProt Q14494) | inactive: 0.271 |  | inactive: -0.341 |  |  | inactive: 0.051 |  | inactive: 0.025 | inactive: 0.176 |  | inactive: -0.159 | inactive: -0.071 | inactive: 0.171 |  | inactive: 0.134 | inactive: 0.04 |  | inactive: 0.042 |  | 
NOTCH1 (UniProt P46531) |  |  |  |  |  |  |  |  |  |  |  | inactive: 0.037 |  |  |  |  |  |  |  | inactive: 0.063

At a glance, some entries already given:
Target | log2 fold change [1] | log2 fold change (filanesib) | log2 fold change (zotarolimus) | log2 fold change (idasanutlin) | log2 fold change (alisertib) | log2 fold change [2] | log2 fold change [3] | log2 fold change (lapatinib) | log2 fold change (pictilisib) | log2 fold change [4] | log2 fold change (crizotinib) | log2 fold change [5] | log2 fold change [6] | log2 fold change (duvelisib) | log2 fold change (gandotinib) | log2 fold change (tozasertib) | log2 fold change [7] | log2 fold change (doramapimod) | log2 fold change (ispinesib) | log2 fold change (gefitinib)
NOL3 isoform 3 (UniProt O60936) | inactive: -0.12 | inactive: 0.102 | inactive: -0.103 |  | inactive: 0.104 | inactive: 0.043 | inactive: -0.01 | inactive: 0 |  | inactive: -0.209 | inactive: -0.152 | inactive: 0.021 | inactive: -0.002 | inactive: 0.037 |  | inactive: -0.212 | inactive: -0.033 | inactive: 0.075 | inactive: 0.005 | inactive: -0.121
NOP58 (UniProt Q9Y2X3) | inactive: -0.124 | active: 0.528 | inactive: 0.044 | inactive: 0.229 | inactive: -0.035 | inactive: -0.096 | inactive: -0.028 | inactive: 0.054 | inactive: 0.049 | inactive: 0.006 | inactive: 0.047 | inactive: -0.061 | inactive: 0.242 |  | inactive: 0.121 |  | inactive: -0.001 | inactive: 0.098 | inactive: 0.103 | inactive: 0.039
